The text below walks through data of PMC8021557.

No constants are given. Whether binding was seen depends on the method and setting. In cells and extracts the contact can be indirect. A yes stands for co-enrichment or nearness to the bait. Other partners may have been found. Sequences can lack the tags named with a protein.

To fix the notation:
T1: SMG7 containing N-terminal Flag and HA (hemagglutinin) tags (FH-SMG7), expressed in H1299 cells (human (cDNA from HCT116 cells)) (UniProt Q92540)
T1 sequence: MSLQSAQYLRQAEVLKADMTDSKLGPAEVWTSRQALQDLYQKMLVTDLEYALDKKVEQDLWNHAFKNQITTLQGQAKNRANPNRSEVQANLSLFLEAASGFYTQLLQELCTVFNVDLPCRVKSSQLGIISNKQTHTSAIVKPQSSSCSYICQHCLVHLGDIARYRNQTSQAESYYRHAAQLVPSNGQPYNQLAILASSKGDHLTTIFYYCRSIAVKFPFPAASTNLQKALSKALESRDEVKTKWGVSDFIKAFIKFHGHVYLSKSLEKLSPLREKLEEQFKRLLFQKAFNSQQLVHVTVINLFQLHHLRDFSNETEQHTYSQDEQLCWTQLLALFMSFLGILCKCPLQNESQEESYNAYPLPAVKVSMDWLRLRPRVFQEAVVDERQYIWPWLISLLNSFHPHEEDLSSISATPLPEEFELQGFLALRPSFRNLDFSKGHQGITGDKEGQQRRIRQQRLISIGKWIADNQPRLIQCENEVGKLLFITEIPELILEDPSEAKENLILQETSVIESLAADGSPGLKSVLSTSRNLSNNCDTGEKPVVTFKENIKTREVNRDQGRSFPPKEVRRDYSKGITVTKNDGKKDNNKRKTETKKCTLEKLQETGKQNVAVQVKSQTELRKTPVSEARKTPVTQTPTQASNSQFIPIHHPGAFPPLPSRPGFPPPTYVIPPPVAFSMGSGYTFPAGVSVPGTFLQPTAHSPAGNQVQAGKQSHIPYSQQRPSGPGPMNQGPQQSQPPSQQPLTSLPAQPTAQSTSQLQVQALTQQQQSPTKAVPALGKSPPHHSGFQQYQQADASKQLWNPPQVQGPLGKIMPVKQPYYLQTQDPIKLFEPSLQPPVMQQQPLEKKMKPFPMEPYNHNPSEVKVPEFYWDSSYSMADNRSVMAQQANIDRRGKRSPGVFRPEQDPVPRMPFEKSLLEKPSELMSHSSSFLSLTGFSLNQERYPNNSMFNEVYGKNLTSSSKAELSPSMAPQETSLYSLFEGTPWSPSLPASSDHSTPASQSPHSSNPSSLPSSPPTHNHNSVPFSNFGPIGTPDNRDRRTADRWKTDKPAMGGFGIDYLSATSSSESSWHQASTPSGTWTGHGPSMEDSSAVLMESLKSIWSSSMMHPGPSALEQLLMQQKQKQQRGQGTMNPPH

B1: UPF1 (protein, UniProt Q92900 1-1129)
chain: MSVEAYGPSSQTLTFLDTEEAELLGADTQGSEFEFTDFTLPSQTQTPPGGPGGPGGGGAGGPGGAGAGAAAGQLDAQVGPEGILQNGAVDDSVAKTSQLLAELNFEEDEEDTYYTKDLPIHACSYCGIHDPACVVYCNTSKKWFCNGRGNTSGSHIVNHLVRAKCKEVTLHKDGPLGETVLECYNCGCRNVFLLGFIPAKADSVVVLLCRQPCASQSSLKDINWDSSQWQPLIQDRCFLSWLVKIPSEQEQLRARQITAQQINKLEELWKENPSATLEDLEKPGVDEEPQHVLLRYEDAYQYQNIFGPLVKLEADYDKKLKESQTQDNITVRWDLGLNKKRIAYFTLPKTDSGNEDLVIIWLRDMRLMQGDEICLRYKGDLAPLWKGIGHVIKVPDNYGDEIAIELRSSVGAPVEVTHNFQVDFVWKSTSFDRMQSALKTFAVDETSVSGYIYHKLLGHEVEDVIIKCQLPKRFTAQGLPDLNHSQVYAVKTVLQRPLSLIQGPPGTGKTVTSATIVYHLARQGNGPVLVCAPSNIAVDQLTEKIHQTGLKVVRLCAKSREAIDSPVSFLALHNQIRNMDSMPELQKLQQLKDETGELSSADEKRYRALKRTAERELLMNADVICCTCVGAGDPRLAKMQFRSILIDESTQATEPECMVPVVLGAKQLILVGDHCQLGPVVMCKKAAKAGLSQSLFERLVVLGIRPIRLQVQYRMHPALSAFPSNIFYEGSLQNGVTAADRVKKGFDFQWPQPDKPMFFYVTQGQEEIASSGTSYLNRTEAANVEKITTKLLKAGAKPDQIGIITPYEGQRSYLVQYMQFSGSLHTKLYQEVEIASVDAFQGREKDFIILSCVRANEHQGIGFLNDPRRLNVALTRARYGVIIVGNPKALSKQPLWNHLLNYYKEQKVLVEGPLNNLRESLMQFSKPRKLVNTINPGARFMTTAMYDAREAIIPGSVYDRSSQGRPSSMYFQTHDQIGMISAGPSHVAAMNIPIPFNLVMPPMPPPGYFGQANGPAAGRGTPKGKTGRGGRQKNRFGLPGPSQTNLPNSQASQDVASQPFSQGALTQGYISMSQPSQMSQPGLSQPELSQDSYLGDEFKSQIDVALSQDSTYQGERAYQHGGVTGLSQY
B2: RAD17 (endogenous, H1299 cells) (protein, UniProt O75943-2 1-670)
chain: MNQVTDWVDPSFDDFLECSGVSTITATSLGVNNSSHRRKNGPSTLESSRFPARKRGNLSSLEQIYGLENSKEYLSENEPWVDKYKPETQHELAVHKKKIEEVETWLKAQVLERQPKQGGSILLITGPPGCGKTTTLKILSKEHGIQVQEWINPVLPDFQKDDFKGMFNTESSFHMFPYQSQIAVFKEFLLRATKYNKLQMLGDDLRTDKKIILVEDLPNQFYRDSHTLHEVLRKYVRIGRCPLIFIISDSLSGDNNQRLLFPKEIQEECSISNISFNPVAPTIMMKFLNRIVTIEANKNGGKITVPDKTSLELLCQGCSGDIRSAINSLQFSSSKGENNLRPRKKGMSLKSDAVLSKSKRRKKPDRVFENQEVQAIGGKDVSLFLFRALGKILYCKRASLTELDSPRLPSHLSEYERDTLLVEPEEVVEMSHMPGDLFNLYLHQNYIDFFMEIDDIVRASEFLSFADILSGDWNTRSLLREYSTSIATRGVMHSNKARGYAHCQGGGSSFRPLHKPQWFLINKKYRENCLAAKALFPDFCLPALCLQTQLLPYLALLTIPMRNQAQISFIQDIGRLPLKRHFGRLKMEALTDREHGMIDPDSGDEAQLNGGHSAEESLGEPTQATVPETWSLPLSQNSASELPASQPQPFSAQGDMEENIIIEDYESDGT
B3: SMG5 (protein, UniProt Q9UPR3 1-1016)
chain: MSQGPPTGESSEPEAKVLHTKRLYRAVVEAVHRLDLILCNKTAYQEVFKPENISLRNKLRELCVKLMFLHPVDYGRKAEELLWRKVYYEVIQLIKTNKKHIHSRSTLECAYRTHLVAGIGFYQHLLLYIQSHYQLELQCCIDWTHVTDPLIGCKKPVSASGKEMDWAQMACHRCLVYLGDLSRYQNELAGVDTELLAERFYYQALSVAPQIGMPFNQLGTLAGSKYYNVEAMYCYLRCIQSEVSFEGAYGNLKRLYDKAAKMYHQLKKCETRKLSPGKKRCKDIKRLLVNFMYLQSLLQPKSSSVDSELTSLCQSVLEDFNLCLFYLPSSPNLSLASEDEEEYESGYAFLPDLLIFQMVIICLMCVHSLERAGSKQYSAAIAFTLALFSHLVNHVNIRLQAELEEGENPVPAFQSDGTDEPESKEPVEKEEEPDPEPPPVTPQVGEGRKSRKFSRLSCLRRRRHPPKVGDDSDLSEGFESDSSHDSARASEGSDSGSDKSLEGGGTAFDAETDSEMNSQESRSDLEDMEEEEGTRSPTLEPPRGRSEAPDSLNGPLGPSEASIASNLQAMSTQMFQTKRCFRLAPTFSNLLLQPTTNPHTSASHRPCVNGDVDKPSEPASEEGSESEGSESSGRSCRNERSIQEKLQVLMAEGLLPAVKVFLDWLRTNPDLIIVCAQSSQSLWNRLSVLLNLLPAAGELQESGLALCPEVQDLLEGCELPDLPSSLLLPEDMALRNLPPLRAAHRRFNFDTDRPLLSTLEESVVRICCIRSFGHFIARLQGSILQFNPEVGIFVSIAQSEQESLLQQAQAQFRMAQEEARRNRLMRDMAQLRLQLEVSQLEGSLQQPKAQSAMSPYLVPDTQALCHHLPVIRQLATSGRFIVIIPRTVIDGLDLLKKEHPGARDGIRYLEAEFKKGNRYIRCQKEVGKSFERHKLKRQDADAWTLYKILDSCKQLTLAQGAGEEDPSGMVTIITGLPLDNPSVLSGPMQAALQAAAHASVDIKNVLDFYKQWKEIG

This test addresses T1, SMG7 containing N-terminal Flag and HA (hemagglutinin) tags (FH-SMG7), expressed in H1299 cells (human (cDNA from HCT116 cells)). As to the kind of experiment: affinity purification with mass spectrometry; H1299-FH-SMG7 stable cells; extracts in BC100 buffer (20 mM Tris-HCl pH 7.9, 100 mM NaCl, 10% glycerol, 0.2 mM EDTA, 0.5% Triton X-100); tandem purification on α-Flag M2 agarose (Flag peptide elution) then α-HA agarose (HA peptide elution); mass spectrometry.
As for B1, the binding entry is “binds”.
Consider B2, for which the binding result is recorded as “binds”.
Take B3: the binding result is “binds”.
